1 molecule from US11192903B2, “Zirconium-89 oxine complex as a cell labeling agent for positron emission tomography” (The United States of America, as represented by the …, priority 2014, dated 2021) can be followed below.

Each structure is given as a SMILES string. Read-outs that look alike come from different tables or passages of the source.

For one data set, the system named is BM cells. Conditions: 11.0-55.5 kBq/10^6 cells, PBS, 20 minutes.

Regarding `c1cnc2c([O][89Zr]([O]c3cccc4cccnc34)([O]c3cccc4cccnc34)[O]c3cccc4cccnc34)cccc2c1` [^89Zr-oxine complex], the labeling efficiency entry with EL4 cells (37° C., all media) was “low under all media conditions”; in the data set on EL4 cells (complete cell media, RT or 4° C.) it was “about two thirds of that achieved in PBS”; with EL4 cells (serum free medium, RT or 4° C., vs PBS), “did not significantly decrease the labeling compared to PBS”; in the data set with CTLs (activated CTLs) it was 21%; with CTLs (naïve T cells (CTLs)), 11%; in the data set with BM cells it was 24-30%. For the same molecule, the cell-associated radioactivity in the data set with BM cells is 3.0-16.7 kBq.
